{
  "source": "the supplement of paper PMC8728848",
  "test_in_all_cases": "glycan array binding signal (z-score within array); higher = stronger binding",
  "details_in_all_cases": "glycan notation: IUPAC condensed, linker removed",
  "key": {"[1]": {"biological_target": "Neu5Ac(a2-3)Gal6S(b1-4)[Fuc(a1-3)]GlcNAc", "summary_of_the_method": "(§1)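 Glycan array data were curated from 3228 arrays in the Consortium for Functional Glycomics database and kept only where the protein sequence was available. Glycan names were converted to IUPAC-condensed notation, and columns mapping to the same glycan were averaged. The binding signal is a within-array Z-score, averaged across arrays of the same protein sequence at different concentrations or buffers and across linkers. Negative Z-scores can be read as non-binding.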"}, "Neu5Ac(a2-3)GalNAc": {"biological_target": "Neu5Ac(a2-3)GalNAc", "summary_of_the_method": "as §1"}, "[2]": {"biological_target": "Neu5Ac(a2-3)GalNAc(b1-4)GlcNAc", "summary_of_the_method": "as §1"}, "[3]": {"biological_target": "Neu5Ac(a2-3)[GalNAc(b1-4)]Gal(b1-4)Glc", "summary_of_the_method": "as §1"}, "[4]": {"biological_target": "Neu5Ac(a2-3)[GalNAc(b1-4)]Gal(b1-4)GlcNAc", "summary_of_the_method": "as §1"}, "[5]": {"biological_target": "Neu5Ac(a2-3)[GalNAc(b1-4)]Gal(b1-4)GlcNAc(b1-3)GalNAc", "summary_of_the_method": "as §1"}, "[6]": {"biological_target": "Neu5Ac(a2-3)[Neu5Ac(a2-6)]GalNAc", "summary_of_the_method": "as §1"}, "Neu5Ac(a2-6)Gal": {"biological_target": "Neu5Ac(a2-6)Gal", "summary_of_the_method": "as §1"}, "[7]": {"biological_target": "Neu5Ac(a2-6)Gal(b1-3)GlcNAc(b1-3)[Gal(b1-4)GlcNAc(b1-6)]Gal(b1-4)Glc", "summary_of_the_method": "as §1"}, "Neu5Ac(a2-6)Gal(b1-4)Glc": {"biological_target": "Neu5Ac(a2-6)Gal(b1-4)Glc", "summary_of_the_method": "as §1"}, "[8]": {"biological_target": "Neu5Ac(a2-6)Gal(b1-4)GlcNAc", "summary_of_the_method": "as §1"}, "[9]": {"biological_target": "Neu5Ac(a2-6)Gal(b1-4)GlcNAc(b1-2)Man", "summary_of_the_method": "as §1"}, "[10]": {"biological_target": "Neu5Ac(a2-6)Gal(b1-4)GlcNAc(b1-2)Man(a1-3)Man(b1-4)GlcNAc(b1-4)GlcNAc", "summary_of_the_method": "as §1"}, "[11]": {"biological_target": "Neu5Ac(a2-6)Gal(b1-4)GlcNAc(b1-2)Man(a1-3)[Gal(b1-4)GlcNAc(b1-2)Man(a1-6)]Man(b1-4)GlcNAc(b1-4)GlcNAc", "summary_of_the_method": "as §1"}, "[12]": {"biological_target": "Neu5Ac(a2-6)Gal(b1-4)GlcNAc(b1-2)Man(a1-3)[GlcNAc(b1-2)Man(a1-6)]Man(b1-4)GlcNAc(b1-4)GlcNAc", "summary_of_the_method": "as §1"}, "[13]": {"biological_target": "Neu5Ac(a2-6)Gal(b1-4)GlcNAc(b1-2)Man(a1-3)[GlcNAc(b1-4)][Neu5Ac(a2-6)Gal(b1-4)GlcNAc(b1-2)Man(a1-6)]Man(b1-4)GlcNAc(b1-4)GlcNAc", "summary_of_the_method": "as §1"}, "[14]": {"biological_target": "Neu5Ac(a2-6)Gal(b1-4)GlcNAc(b1-2)Man(a1-3)[Man(a1-6)]Man(b1-4)GlcNAc(b1-4)GlcNAc", "summary_of_the_method": "as §1"}, "[15]": {"biological_target": "Neu5Ac(a2-6)Gal(b1-4)GlcNAc(b1-2)Man(a1-3)[Neu5Ac(a2-3)Gal(b1-4)GlcNAc(b1-2)Man(a1-6)]Man(b1-4)GlcNAc(b1-4)GlcNAc", "summary_of_the_method": "as §1"}, "[16]": {"biological_target": "Neu5Ac(a2-6)Gal(b1-4)GlcNAc(b1-2)Man(a1-3)[Neu5Ac(a2-6)Gal(b1-4)GlcNAc(b1-2)Man(a1-6)]Man(b1-4)GlcNAc(b1-4)GlcNAc", "summary_of_the_method": "as §1"}, "[17]": {"biological_target": "Neu5Ac(a2-6)Gal(b1-4)GlcNAc(b1-2)Man(a1-3)[Neu5Ac(a2-6)Gal(b1-4)GlcNAc(b1-2)Man(a1-6)]Man(b1-4)GlcNAc(b1-4)[Fuc(a1-6)]GlcNAc", "summary_of_the_method": "as §1"}, "[18]": {"biological_target": "Neu5Ac(a2-6)Gal(b1-4)GlcNAc(b1-2)Man(a1-6)Man(b1-4)GlcNAc(b1-4)GlcNAc", "summary_of_the_method": "as §1"}, "[19]": {"biological_target": "Neu5Ac(a2-6)Gal(b1-4)GlcNAc(b1-2)Man(a1-6)[Gal(b1-4)GlcNAc(b1-2)Man(a1-3)]Man(b1-4)GlcNAc(b1-4)GlcNAc", "summary_of_the_method": "as §1"}, "[20]": {"biological_target": "Neu5Ac(a2-6)Gal(b1-4)GlcNAc(b1-2)Man(a1-6)[GlcNAc(b1-2)Man(a1-3)]Man(b1-4)GlcNAc(b1-4)GlcNAc", "summary_of_the_method": "as §1"}, "[21]": {"biological_target": "Neu5Ac(a2-6)Gal(b1-4)GlcNAc(b1-2)Man(a1-6)[Man(a1-3)]Man(b1-4)GlcNAc(b1-4)GlcNAc", "summary_of_the_method": "as §1"}, "[22]": {"biological_target": "Neu5Ac(a2-6)Gal(b1-4)GlcNAc(b1-2)[Neu5Ac(a2-6)Gal(b1-4)GlcNAc(b1-4)]Man(a1-3)[GlcNAc(b1-4)][Neu5Ac(a2-6)Gal(b1-4)GlcNAc(b1-4)Man(a1-6)]Man(b1-4)GlcNAc(b1-4)GlcNAc", "summary_of_the_method": "as §1"}, "[23]": {"biological_target": "Neu5Ac(a2-6)Gal(b1-4)GlcNAc(b1-2)[Neu5Ac(a2-6)Gal(b1-4)GlcNAc(b1-6)]Man(a1-6)[Neu5Ac(a2-6)Gal(b1-4)GlcNAc(b1-2)Man(a1-3)][GlcNAc(b1-4)]Man(b1-4)GlcNAc(b1-4)GlcNAc", "summary_of_the_method": "as §1"}, "[24]": {"biological_target": "Neu5Ac(a2-6)Gal(b1-4)GlcNAc(b1-3)Gal(b1-3)GlcNAc", "summary_of_the_method": "as §1"}, "[25]": {"biological_target": "Neu5Ac(a2-6)Gal(b1-4)GlcNAc(b1-3)Gal(b1-4)GlcNAc", "summary_of_the_method": "as §1"}, "[26]": {"biological_target": "Neu5Ac(a2-6)Gal(b1-4)GlcNAc(b1-3)Gal(b1-4)GlcNAc(b1-2)Man(a1-3)[Neu5Ac(a2-6)Gal(b1-4)GlcNAc(b1-3)Gal(b1-4)GlcNAc(b1-2)Man(a1-6)]GalNAc", "summary_of_the_method": "as §1"}, "[27]": {"biological_target": "Neu5Ac(a2-6)Gal(b1-4)GlcNAc(b1-3)Gal(b1-4)GlcNAc(b1-3)Gal(b1-4)GlcNAc", "summary_of_the_method": "as §1"}, "[28]": {"biological_target": "Neu5Ac(a2-6)Gal(b1-4)GlcNAc(b1-3)Gal(b1-4)GlcNAc(b1-3)Gal(b1-4)GlcNAc(b1-2)Man(a1-3)[Neu5Ac(a2-6)Gal(b1-4)GlcNAc(b1-3)Gal(b1-4)GlcNAc(b1-3)Gal(b1-4)GlcNAc(b1-2)Man(a1-6)]GalNAc", "summary_of_the_method": "as §1"}, "[29]": {"biological_target": "Neu5Ac(a2-6)Gal(b1-4)GlcNAc(b1-3)Gal(b1-4)GlcNAc(b1-3)GalNAc", "summary_of_the_method": "as §1"}, "[30]": {"biological_target": "Neu5Ac(a2-6)Gal(b1-4)GlcNAc(b1-3)Gal(b1-4)GlcNAc(b1-3)[Neu5Ac(a2-6)Gal(b1-4)GlcNAc(b1-3)Gal(b1-4)GlcNAc(b1-6)]GalNAc", "summary_of_the_method": "as §1"}, "[31]": {"biological_target": "Neu5Ac(a2-6)Gal(b1-4)GlcNAc(b1-3)Gal(b1-4)GlcNAc(b1-6)[Gal(b1-3)]GalNAc", "summary_of_the_method": "as §1"}, "[32]": {"biological_target": "Neu5Ac(a2-6)Gal(b1-4)GlcNAc(b1-3)Gal(b1-4)[Fuc(a1-3)]GlcNAc(b1-3)Gal(b1-4)[Fuc(a1-3)]GlcNAc", "summary_of_the_method": "as §1"}, "[33]": {"biological_target": "Neu5Ac(a2-6)Gal(b1-4)GlcNAc(b1-3)GalNAc", "summary_of_the_method": "as §1"}, "[34]": {"biological_target": "Neu5Ac(a2-6)Gal(b1-4)GlcNAc(b1-3)[Neu5Ac(a2-6)Gal(b1-4)GlcNAc(b1-6)]GalNAc", "summary_of_the_method": "as §1"}},
  "note": "The list shows a part of the results.",
  "data": [
    {"binder": "RbmA (Vibrio cholerae), A0A2H4NFB8 (protein) MSNFKGSIMNKRHYYLASCLALLFSTASYAEVDCELQPVIEANLSLNQNQLASNGGYISSQLGIRNESCETVKFKYWLSIKGPEGIYFPAKAVVGVDTAQQESDALTDGRMLNVTRGFWVPEYMADGKYTVSLQVVAENGEVFKANQEFVKGGDLNSLPELNGLTIDIKNQFGINSVESTGGFVPFTIDLNNGREGEAKVEFWMTAVGPDGLIIPVHSREKWMIIAGNTFSKVRGINFDKSYPAGEYTINAQVVDIVSGERVEQLMTVVKK", "values": [
      {"measurement": "glycan array binding signal (z-score)", "setting": "[1]", "value": -1.05},
      {"measurement": "glycan array binding signal (z-score)", "setting": "Neu5Ac(a2-3)GalNAc", "value": -1.03},
      {"measurement": "glycan array binding signal (z-score)", "setting": "[2]", "value": 0.243},
      {"measurement": "glycan array binding signal (z-score)", "setting": "[3]", "value": -0.899},
      {"measurement": "glycan array binding signal (z-score)", "setting": "[4]", "value": -1.04},
      {"measurement": "glycan array binding signal (z-score)", "setting": "[5]", "value": -0.426},
      {"measurement": "glycan array binding signal (z-score)", "setting": "[6]", "value": -0.949},
      {"measurement": "glycan array binding signal (z-score)", "setting": "Neu5Ac(a2-6)Gal", "value": -1.27},
      {"measurement": "glycan array binding signal (z-score)", "setting": "[7]", "value": 2.25},
      {"measurement": "glycan array binding signal (z-score)", "setting": "Neu5Ac(a2-6)Gal(b1-4)Glc", "value": -0.776},
      {"measurement": "glycan array binding signal (z-score)", "setting": "[8]", "value": -0.509},
      {"measurement": "glycan array binding signal (z-score)", "setting": "[9]", "value": -0.131},
      {"measurement": "glycan array binding signal (z-score)", "setting": "[10]", "value": -0.663},
      {"measurement": "glycan array binding signal (z-score)", "setting": "[11]", "value": -1.26},
      {"measurement": "glycan array binding signal (z-score)", "setting": "[12]", "value": -1},
      {"measurement": "glycan array binding signal (z-score)", "setting": "[13]", "value": 0.273},
      {"measurement": "glycan array binding signal (z-score)", "setting": "[14]", "value": -0.05},
      {"measurement": "glycan array binding signal (z-score)", "setting": "[15]", "value": 0.136},
      {"measurement": "glycan array binding signal (z-score)", "setting": "[16]", "value": 0.76},
      {"measurement": "glycan array binding signal (z-score)", "setting": "[17]", "value": -0.43},
      {"measurement": "glycan array binding signal (z-score)", "setting": "[18]", "value": -0.641},
      {"measurement": "glycan array binding signal (z-score)", "setting": "[19]", "value": -0.289},
      {"measurement": "glycan array binding signal (z-score)", "setting": "[20]", "value": -0.799},
      {"measurement": "glycan array binding signal (z-score)", "setting": "[21]", "value": -0.765},
      {"measurement": "glycan array binding signal (z-score)", "setting": "[22]", "value": 0.66},
      {"measurement": "glycan array binding signal (z-score)", "setting": "[23]", "value": 0.105},
      {"measurement": "glycan array binding signal (z-score)", "setting": "[24]", "value": -0.286},
      {"measurement": "glycan array binding signal (z-score)", "setting": "[25]", "value": -0.225},
      {"measurement": "glycan array binding signal (z-score)", "setting": "[26]", "value": -0.252},
      {"measurement": "glycan array binding signal (z-score)", "setting": "[27]", "value": -0.863},
      {"measurement": "glycan array binding signal (z-score)", "setting": "[28]", "value": 1.63},
      {"measurement": "glycan array binding signal (z-score)", "setting": "[29]", "value": -0.751},
      {"measurement": "glycan array binding signal (z-score)", "setting": "[30]", "value": -0.527},
      {"measurement": "glycan array binding signal (z-score)", "setting": "[31]", "value": 2.28},
      {"measurement": "glycan array binding signal (z-score)", "setting": "[32]", "value": -0.237},
      {"measurement": "glycan array binding signal (z-score)", "setting": "[33]", "value": -0.582},
      {"measurement": "glycan array binding signal (z-score)", "setting": "[34]", "value": 1.76}
    ]}
  ]
}
